Amino acid sequences for entries named in this document (tags omitted). A change or cut given only in a name is not applied to a line headed by its entry. Residues count along the entry.
UniProt P11712, whole entry: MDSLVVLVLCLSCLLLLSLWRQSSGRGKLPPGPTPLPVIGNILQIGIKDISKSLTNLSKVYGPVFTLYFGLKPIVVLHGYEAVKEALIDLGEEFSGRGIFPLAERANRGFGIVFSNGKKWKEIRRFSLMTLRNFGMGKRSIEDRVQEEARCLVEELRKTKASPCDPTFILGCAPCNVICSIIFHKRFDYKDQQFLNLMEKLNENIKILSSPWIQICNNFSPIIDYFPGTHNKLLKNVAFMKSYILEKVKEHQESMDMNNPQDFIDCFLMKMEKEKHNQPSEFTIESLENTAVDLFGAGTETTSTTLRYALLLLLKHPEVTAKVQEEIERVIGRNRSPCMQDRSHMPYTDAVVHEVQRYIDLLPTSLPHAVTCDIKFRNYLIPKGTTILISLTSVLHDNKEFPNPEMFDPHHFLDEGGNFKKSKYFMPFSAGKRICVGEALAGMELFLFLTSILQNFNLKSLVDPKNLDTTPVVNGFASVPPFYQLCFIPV
UniProt P08684, whole entry: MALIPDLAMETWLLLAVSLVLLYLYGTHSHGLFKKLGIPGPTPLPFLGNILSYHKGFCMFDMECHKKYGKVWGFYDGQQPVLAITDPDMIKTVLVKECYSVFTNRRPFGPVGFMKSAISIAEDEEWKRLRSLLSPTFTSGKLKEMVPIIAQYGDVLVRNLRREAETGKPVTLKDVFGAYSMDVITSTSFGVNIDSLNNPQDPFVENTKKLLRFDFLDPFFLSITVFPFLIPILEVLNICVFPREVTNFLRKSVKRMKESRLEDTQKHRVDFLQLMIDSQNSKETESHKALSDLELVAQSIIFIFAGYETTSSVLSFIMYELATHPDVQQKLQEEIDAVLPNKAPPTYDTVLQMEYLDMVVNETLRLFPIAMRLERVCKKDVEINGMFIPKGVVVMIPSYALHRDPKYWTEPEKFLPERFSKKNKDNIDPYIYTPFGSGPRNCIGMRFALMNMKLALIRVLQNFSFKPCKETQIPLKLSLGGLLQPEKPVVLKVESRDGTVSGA
UniProt P08183, whole entry: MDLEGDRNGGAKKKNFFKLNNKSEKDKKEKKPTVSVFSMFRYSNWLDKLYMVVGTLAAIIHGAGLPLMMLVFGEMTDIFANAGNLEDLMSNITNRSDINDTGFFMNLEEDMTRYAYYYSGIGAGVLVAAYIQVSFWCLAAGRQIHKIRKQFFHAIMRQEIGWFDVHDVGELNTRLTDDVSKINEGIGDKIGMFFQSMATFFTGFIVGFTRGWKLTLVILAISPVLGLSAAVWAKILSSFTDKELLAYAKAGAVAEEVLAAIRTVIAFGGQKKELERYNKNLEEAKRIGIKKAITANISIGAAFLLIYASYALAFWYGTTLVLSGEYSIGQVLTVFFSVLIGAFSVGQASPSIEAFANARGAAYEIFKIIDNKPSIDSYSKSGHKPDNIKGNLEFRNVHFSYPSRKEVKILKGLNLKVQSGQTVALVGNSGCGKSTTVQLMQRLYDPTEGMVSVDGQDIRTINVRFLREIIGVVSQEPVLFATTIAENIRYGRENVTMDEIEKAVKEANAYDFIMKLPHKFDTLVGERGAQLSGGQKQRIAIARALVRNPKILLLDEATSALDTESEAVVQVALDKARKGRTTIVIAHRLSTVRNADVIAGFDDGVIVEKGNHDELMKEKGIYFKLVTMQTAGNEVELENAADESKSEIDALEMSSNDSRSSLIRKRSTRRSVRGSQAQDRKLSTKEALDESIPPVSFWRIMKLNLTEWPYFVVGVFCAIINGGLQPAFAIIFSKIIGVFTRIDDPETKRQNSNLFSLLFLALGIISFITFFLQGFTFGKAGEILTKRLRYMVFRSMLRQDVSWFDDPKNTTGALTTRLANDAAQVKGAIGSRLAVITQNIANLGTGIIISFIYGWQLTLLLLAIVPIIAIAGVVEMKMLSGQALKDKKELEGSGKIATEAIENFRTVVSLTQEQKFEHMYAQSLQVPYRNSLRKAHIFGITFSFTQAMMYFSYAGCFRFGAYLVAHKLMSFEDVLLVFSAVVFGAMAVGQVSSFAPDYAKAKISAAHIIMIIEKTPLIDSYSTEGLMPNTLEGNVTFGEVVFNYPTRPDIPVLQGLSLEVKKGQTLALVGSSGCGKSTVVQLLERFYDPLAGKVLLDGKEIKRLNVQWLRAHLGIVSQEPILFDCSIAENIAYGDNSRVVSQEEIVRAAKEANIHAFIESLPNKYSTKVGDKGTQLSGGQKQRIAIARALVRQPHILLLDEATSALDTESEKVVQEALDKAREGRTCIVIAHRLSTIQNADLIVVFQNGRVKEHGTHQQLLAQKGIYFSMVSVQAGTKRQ
UniProt O15244: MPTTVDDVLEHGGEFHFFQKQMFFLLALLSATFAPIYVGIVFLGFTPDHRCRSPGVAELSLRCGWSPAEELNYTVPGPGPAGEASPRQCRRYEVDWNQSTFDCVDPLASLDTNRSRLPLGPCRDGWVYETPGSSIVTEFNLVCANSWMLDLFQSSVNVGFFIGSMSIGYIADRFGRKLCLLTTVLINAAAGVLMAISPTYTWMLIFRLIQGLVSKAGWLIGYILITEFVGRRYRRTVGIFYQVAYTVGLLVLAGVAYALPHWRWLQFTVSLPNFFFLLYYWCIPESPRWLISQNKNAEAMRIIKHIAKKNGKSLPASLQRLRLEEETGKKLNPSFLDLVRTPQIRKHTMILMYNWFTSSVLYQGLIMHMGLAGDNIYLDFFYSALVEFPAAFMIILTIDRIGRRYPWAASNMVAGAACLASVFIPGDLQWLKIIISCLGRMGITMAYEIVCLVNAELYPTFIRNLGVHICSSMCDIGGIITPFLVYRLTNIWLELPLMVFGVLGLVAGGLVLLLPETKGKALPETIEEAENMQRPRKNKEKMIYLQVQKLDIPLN
UniProt Q9NPD5: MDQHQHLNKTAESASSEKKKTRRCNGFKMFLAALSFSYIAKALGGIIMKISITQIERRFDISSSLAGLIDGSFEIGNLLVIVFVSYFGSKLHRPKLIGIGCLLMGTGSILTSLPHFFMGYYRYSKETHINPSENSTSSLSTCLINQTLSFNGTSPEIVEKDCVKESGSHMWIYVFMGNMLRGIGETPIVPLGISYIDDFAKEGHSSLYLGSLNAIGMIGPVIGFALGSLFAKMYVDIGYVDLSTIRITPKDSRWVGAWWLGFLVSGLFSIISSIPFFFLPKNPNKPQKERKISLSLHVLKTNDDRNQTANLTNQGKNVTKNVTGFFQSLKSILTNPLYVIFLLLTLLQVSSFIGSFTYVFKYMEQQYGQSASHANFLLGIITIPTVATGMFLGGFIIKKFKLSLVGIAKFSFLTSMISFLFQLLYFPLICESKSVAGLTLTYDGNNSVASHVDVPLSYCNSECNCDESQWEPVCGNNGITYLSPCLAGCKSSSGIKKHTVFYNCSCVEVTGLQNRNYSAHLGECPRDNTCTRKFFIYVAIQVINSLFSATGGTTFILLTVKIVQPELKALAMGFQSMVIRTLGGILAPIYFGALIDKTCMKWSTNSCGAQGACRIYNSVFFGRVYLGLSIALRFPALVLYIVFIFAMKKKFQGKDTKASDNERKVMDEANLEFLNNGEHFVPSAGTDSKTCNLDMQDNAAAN
UniProt Q4U2R8: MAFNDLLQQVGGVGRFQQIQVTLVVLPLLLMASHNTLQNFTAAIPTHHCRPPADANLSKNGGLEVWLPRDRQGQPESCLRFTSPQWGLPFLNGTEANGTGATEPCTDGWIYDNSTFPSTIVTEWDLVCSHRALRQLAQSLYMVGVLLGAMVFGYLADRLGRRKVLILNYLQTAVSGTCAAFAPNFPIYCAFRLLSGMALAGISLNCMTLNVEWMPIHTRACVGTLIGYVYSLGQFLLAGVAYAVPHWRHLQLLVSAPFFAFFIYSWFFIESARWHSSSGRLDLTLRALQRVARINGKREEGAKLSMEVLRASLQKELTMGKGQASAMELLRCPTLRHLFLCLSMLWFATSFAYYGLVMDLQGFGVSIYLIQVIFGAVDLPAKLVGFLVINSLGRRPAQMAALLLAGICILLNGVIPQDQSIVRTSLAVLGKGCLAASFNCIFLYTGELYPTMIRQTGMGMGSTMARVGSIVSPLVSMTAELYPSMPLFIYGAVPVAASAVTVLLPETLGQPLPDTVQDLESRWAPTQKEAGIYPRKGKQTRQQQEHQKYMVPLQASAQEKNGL
UniProt Q8TCC7: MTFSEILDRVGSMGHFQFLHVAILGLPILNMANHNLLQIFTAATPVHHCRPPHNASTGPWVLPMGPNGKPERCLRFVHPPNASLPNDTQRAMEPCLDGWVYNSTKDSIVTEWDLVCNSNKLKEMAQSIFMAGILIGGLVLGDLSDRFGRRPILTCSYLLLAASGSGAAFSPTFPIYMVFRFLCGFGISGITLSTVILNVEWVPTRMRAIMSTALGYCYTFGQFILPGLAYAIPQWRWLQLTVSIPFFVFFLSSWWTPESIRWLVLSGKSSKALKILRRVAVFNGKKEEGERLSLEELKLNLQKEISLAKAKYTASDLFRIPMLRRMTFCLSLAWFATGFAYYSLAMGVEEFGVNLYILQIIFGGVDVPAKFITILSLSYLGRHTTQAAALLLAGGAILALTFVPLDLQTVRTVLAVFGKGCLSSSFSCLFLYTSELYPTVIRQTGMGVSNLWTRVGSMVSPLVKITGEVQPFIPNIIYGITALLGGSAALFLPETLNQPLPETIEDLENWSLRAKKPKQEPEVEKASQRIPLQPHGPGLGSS
UniProt O15245: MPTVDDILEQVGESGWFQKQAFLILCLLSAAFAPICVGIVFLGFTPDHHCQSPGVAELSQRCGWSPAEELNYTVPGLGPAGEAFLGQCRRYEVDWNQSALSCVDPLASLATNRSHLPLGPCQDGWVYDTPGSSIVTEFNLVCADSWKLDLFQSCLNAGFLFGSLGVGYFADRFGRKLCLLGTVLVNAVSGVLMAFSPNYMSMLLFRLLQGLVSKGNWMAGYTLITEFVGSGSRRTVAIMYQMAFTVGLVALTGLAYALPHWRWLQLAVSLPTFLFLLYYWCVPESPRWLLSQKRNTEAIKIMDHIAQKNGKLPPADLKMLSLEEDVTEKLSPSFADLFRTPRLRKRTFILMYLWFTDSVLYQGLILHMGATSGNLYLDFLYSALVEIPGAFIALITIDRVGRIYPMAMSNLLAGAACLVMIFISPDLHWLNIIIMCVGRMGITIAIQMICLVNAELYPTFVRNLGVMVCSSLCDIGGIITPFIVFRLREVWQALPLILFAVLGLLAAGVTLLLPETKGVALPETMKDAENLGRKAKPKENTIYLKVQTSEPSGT
UniProt Q96FL8: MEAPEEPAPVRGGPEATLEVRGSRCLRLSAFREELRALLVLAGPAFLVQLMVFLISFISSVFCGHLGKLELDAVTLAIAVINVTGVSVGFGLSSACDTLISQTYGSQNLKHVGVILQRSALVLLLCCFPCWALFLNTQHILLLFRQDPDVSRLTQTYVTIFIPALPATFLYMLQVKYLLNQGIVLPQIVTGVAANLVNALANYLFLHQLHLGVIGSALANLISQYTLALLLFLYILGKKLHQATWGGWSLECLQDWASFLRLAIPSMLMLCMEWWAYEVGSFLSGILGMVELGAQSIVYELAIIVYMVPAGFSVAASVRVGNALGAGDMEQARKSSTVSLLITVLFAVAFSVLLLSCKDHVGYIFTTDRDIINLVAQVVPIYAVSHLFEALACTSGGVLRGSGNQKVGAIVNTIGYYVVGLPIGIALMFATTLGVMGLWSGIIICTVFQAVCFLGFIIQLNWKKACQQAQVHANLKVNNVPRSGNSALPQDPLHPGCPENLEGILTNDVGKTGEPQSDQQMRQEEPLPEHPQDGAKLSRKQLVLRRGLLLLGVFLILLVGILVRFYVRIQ
UniProt Q86VL8, 1-566 isoform Q86VL8-3: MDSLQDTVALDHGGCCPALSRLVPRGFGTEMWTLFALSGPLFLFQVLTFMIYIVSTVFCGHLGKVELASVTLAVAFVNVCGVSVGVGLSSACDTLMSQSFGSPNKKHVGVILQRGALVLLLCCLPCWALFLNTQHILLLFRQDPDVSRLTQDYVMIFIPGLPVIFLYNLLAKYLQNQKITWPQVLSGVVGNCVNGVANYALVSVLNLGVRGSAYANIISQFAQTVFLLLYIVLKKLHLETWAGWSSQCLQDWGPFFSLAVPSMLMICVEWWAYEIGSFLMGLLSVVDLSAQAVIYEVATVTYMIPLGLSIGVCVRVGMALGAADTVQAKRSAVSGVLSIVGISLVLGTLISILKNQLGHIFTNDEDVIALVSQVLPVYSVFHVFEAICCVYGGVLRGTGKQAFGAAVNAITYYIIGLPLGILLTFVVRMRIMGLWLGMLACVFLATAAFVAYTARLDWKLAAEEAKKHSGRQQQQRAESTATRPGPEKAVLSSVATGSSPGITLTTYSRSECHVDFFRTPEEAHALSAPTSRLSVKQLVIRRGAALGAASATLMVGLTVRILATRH

In patent US20260345596A1, “TREATMENT OF LOCALLY ADVANCED OR METASTATIC UROTHELIAL CARCINOMA WITH ERDAFINITIB” (priority 2023, published 2026):

Columns and labels:
CYP2C9 [1] = target: T1, CYP2C9 (Homo sapiens, UniProt P11712); conditions: role: substrate; estimated
CYP3A4 [2] = target: T2, CYP3A4 (Homo sapiens, UniProt P08684); conditions: role: substrate; estimated
CYP3A4 [3] = target: T2, CYP3A4; conditions: role: inhibitor; in vitro
other major CYP isozymes = conditions: role: inhibitor; clinically relevant concentrations
P-gp = P-gp (Homo sapiens, UniProt P08183); conditions: in vitro
OCT2 = OCT2 (Homo sapiens, UniProt O15244); conditions: in vitro
BCRP = conditions: clinically relevant concentrations
OATP1B = conditions: clinically relevant concentrations
OATP1B3 = OATP1B3 (Homo sapiens, UniProt Q9NPD5); conditions: clinically relevant concentrations
OAT1 = OAT1 (Homo sapiens, UniProt Q4U2R8); conditions: clinically relevant concentrations
OAT3 = OAT3 (Homo sapiens, UniProt Q8TCC7); conditions: clinically relevant concentrations
OCT1 = OCT1 (Homo sapiens, UniProt O15245); conditions: clinically relevant concentrations
MATE-1 = MATE-1 (Homo sapiens, UniProt Q96FL8); conditions: clinically relevant concentrations
MATE-2K = MATE-2K (Homo sapiens, UniProt Q86VL8); conditions: clinically relevant concentrations
CYP2C9 [4] = target: T1, CYP2C9; conditions: CYP2C9*1/*2 and *1/*3 relative to *1/*1
[5] = tested on: FGFR-expressing cell lines
[6] = tested on: xenograft models derived from tumor types, including bladder cancer
rat bone marrow = experiment: In vivo rat bone marrow micronucleus assay
[7] = Study BLC3001 (NCT03390504, THOR) Cohort 1: safety, adverse events, laboratory abnormalities and exposure; conditions: for Acute kidney injury: serious adverse events, any cause
[8] = adverse events leading to death
[9] = leading to treatment discontinuation

SMILES: COc1cc(OC)cc(N(CCNC(C)C)c2ccc3ncc(-c4cnn(C)c4)nc3c2)c1 [Erdafitinib, N-(3,5-dimethoxyphenyl)-N′-(1-methylethyl)-N-[3-(1-methyl-1H-pyrazol-4-yl)quinoxalin-6-yl]ethane-1,2-diamine]
- Contribution of CYP2C9 in the total clearance (CYP2C9 [1]): 39%
- Contribution of CYP3A4 in the total clearance (CYP3A4 [2]): 20%
- CYP3A4 inhibition / induction (CYP3A4 [3]): time dependent inhibitor and inducer of CYP3A4
- Inhibition of other major CYP isozymes (other major CYP isozymes): not an inhibitor of other major CYP isozymes at clinically relevant concentrations
- P-gp substrate / inhibition (P-gp): substrate and inhibitor of P-gp
- OCT2 inhibition (OCT2): inhibitor of OCT2
- BCRP inhibition (BCRP): does not inhibit
- OATP1B inhibition (OATP1B): does not inhibit
- OATP1B3 inhibition (OATP1B3): does not inhibit
- OAT1 inhibition (OAT1): does not inhibit
- OAT3 inhibition (OAT3): does not inhibit
- OCT1 inhibition (OCT1): does not inhibit
- MATE-1 inhibition (MATE-1): does not inhibit
- MATE-2K inhibition (MATE-2K): does not inhibit
- Exposure by CYP2C9 genotype (CYP2C9 [4]): Erdafitinib exposure was similar in subjects with CYP2C9*1/*2 and *1/*3 genotypes relative to subjects with CYP2C9*1/*1 genotype (wild type)
- Antitumor activity in cell lines [5]: demonstrated antitumor activity in FGFR-expressing cell lines
- Antitumor activity in xenograft models [6]: demonstrated antitumor activity in FGFR-expressing cell lines and xenograft models derived from tumor types, including bladder cancer
- Clastogenicity, in vivo rat bone marrow micronucleus (rat bone marrow): not clastogenic
- Acute kidney injury ([7]; Grade 1): 0 no. (%)
- Nail discoloration ([7]; Grade 1, treatment-emergent): 16 (11.9) no. (%)
- Nail discoloration ([7]; Grade 1, treatment-related): 16 (11.9) no. (%)
- Acute kidney injury ([7]; Grade 2): 0 no. (%)
- Nail discoloration ([7]; Grade 2, treatment-emergent): 7 (5.2) no. (%)
- Nail discoloration ([7]; Grade 2, treatment-related): 7 (5.2) no. (%)
- Acute kidney injury ([7]; Grade ≥3): 3 (2.2) no. (%)
- Nail discoloration ([7]; Grade ≥3, treatment-emergent): 1 (0.7) no. (%)
- Nail discoloration ([7]; Grade ≥3, treatment-related): 1 (0.7) no. (%)
- General physical health deterioration [7, 8]: 0 no. (%)
- Pneumonia aspiration [7, 8]: 1 (0.7) no. (%)
- Acute kidney injury ([7]; any grade): 3 (2.2) no. (%)
- Nail discoloration ([7]; any grade, treatment-related): 24 (17.8) no. (%)
- General physical health deterioration [7, 9]: 2 (1.5) no. (%)
- Mouth ulceration [7, 9]: 1 (0.7) no. (%)
- Nail discoloration [7, 9]: 1 (0.7) no. (%)
- Pneumonia aspiration [7, 9]: 1 (0.7) no. (%)
